The list does not hold the whole screen: it is rich in T/C values a quarter to a half above the control, in often repeated tests (any T/C) and in doses without a T/C. Further doses and runs are listed elsewhere. T/C: endpoint of the treated group in % of that of the vehicle group. Some doses have a count of surviving animals in place of a T/C: the source files T/C as zero there, which appears to mark a toxic dose or a test without result, not a measured value. Some doses without a T/C left all or most animals alive at the check, yet need not have been tolerated: survival well below the control is almost never listed, so the zero probably covers shortened survival too. Survivors were counted at the toxicity check, usually on the fifth day, unless a day is given; later deaths do not show. Schedule codes are those of the source, taken here to give the interval after Q, in days (D) or hours (H), and the number of doses after X. Counts like (3×) say how often a value occurs here. Some schedule codes hold Z or #, which are not explained here. Where survival is the endpoint, this PubChem deposit counts one and a half times the control or more as active, and values a quarter to a half above the control carry no call in these data; other NCI protocols may use other cut-offs. Some T/C values carry the count of animals alive at the toxicity check (mostly the fifth day); without a count, all were alive then.
System: L1210 leukemia ip in BDF1 mice, survival T/C
Assay: NCI In Vivo Anticancer Drug Screen. Data for tumor model L1210 Leukemia (intraperitoneal) in B6D2F1 (BDF1) mice
Details: T/C endpoint: mean survival time, higher T/C = longer survival
[1] = dose: 400.0 mg/kg/injection, schedule: Q01DX001 (ip), vehicle: saline
[2] = dose: 60.0 mg/kg/injection, schedule: Q01DX001 (ip), vehicle: saline
[3] = dose: 75.0 mg/kg/injection, schedule: Q01DX001 (ip), vehicle: saline
[4] = dose: 150.0 mg/kg/injection, schedule: Q01DX001 (ip), vehicle: saline
[5] = dose: 300.0 mg/kg/injection, schedule: Q01DX001 (ip), vehicle: saline
[6] = dose: 400.0 mg/kg/injection, schedule: Q01DX001 (ip), vehicle: Klucel (hydroxypropylcellulose) (HPC)
[7] = dose: 400.0 mg/kg/injection, schedule: Q01DX009 (ip), vehicle: Klucel (hydroxypropylcellulose) (HPC)
[8] = dose: 400.0 mg/kg/injection, schedule: Q04DX003 (ip), vehicle: Klucel (hydroxypropylcellulose) (HPC)
[9] = dose: 200.0 mg/kg/injection, schedule: Q04DX002 (ip), vehicle: Klucel (hydroxypropylcellulose) (HPC)
[10] = dose: 200.0 mg/kg/injection, schedule: Q04DX003 (ip), vehicle: saline with Tween-80
[11] = dose: 400.0 mg/kg/injection, schedule: Q04DX003 (ip), vehicle: saline with Tween-80
[12] = dose: 100.0 mg/kg/injection, schedule: Q04DX003 (ip), vehicle: Klucel (hydroxypropylcellulose) (HPC)
[13] = dose: 200.0 mg/kg/injection, schedule: Q04DX003 (ip), vehicle: Klucel (hydroxypropylcellulose) (HPC)

With `O=C(CCCCC(=O)Nc1cc(C(=O)Nc2ccc(C3=NCCN3)cc2)ccc1C(=O)Nc1ccc(C2=NCCN2)cc1)Nc1cc(C(=O)Nc2ccc(C3=NCCN3)cc2)ccc1C(=O)Nc1ccc(C2=NCCN2)cc1` the survivor count (dose: 60.0 mg/kg/injection, schedule: Q01DX Z (ip), vehicle: methylcellulose (MC)) was 0 of 6.

For `Cc1cc(C)[n+]([O-])c(C)c1[N+](=O)[O-]`, the survivor count [1] was 3 of 6.

In the case of `CC[P+](C)(CC)c1ccccc1`, the survivor count [2] is reported as 1 of 6, the survivor count [3] is reported as 0 of 6 and the survivor count [4] is reported as 0 of 6. For the same compound, the survivor count [5] was 0 of 6.

`CCCCC1C(=O)N(c2ccccc2)N(c2ccccc2)C1=O` was tested, and the survivor count (dose: 200.0 mg/kg/injection, schedule: Q01DX Z (ip), vehicle: water) was 3 of 6.

`CN(C)C=NC1CCC(CC2CCCCC2)CC1` (stereo not drawn) was tested, and the survivor count [6] was 2 of 6.

In the case of `Cc1nc(N)[nH]c(=O)c1CCCCC#N`, the survivor count [7] is reported as 2 of 3.

For `CCCCCCCC(=O)Nc1ccc(C)cc1`, the T/C [8] was 127 % of control [5 of 6 alive].

In the case of `O=C(O)CCNCCO`, the survivor count (dose: 400.0 mg/kg/injection, schedule: Q01DX009 (ip), vehicle: saline) is reported as 5 of 6.

`CCOC(=O)/C(C#N)=C\c1ccccc1Cl` was tested, and the survivor count [8] was 3 of 6.

`Cc1cc2nncn2c2ccccc12` was tested, and the survivor count [1] was 2 of 4.

With `Oc1ccc(N=Cc2c(O)ccc3ccccc23)cc1` the survivor count (dose: 100.0 mg/kg/injection, schedule: Q01DX001 (ip), vehicle: other) was 6 of 6.

With `CCc1nc(N(C)CC(=O)O)nc(CC)c1-c1ccccc1O` the survivor count [9] was 3 of 3.

With `CCOC(=O)C(NNc1ccccc1)C(c1ccccc1)[P+](c1ccccc1)(c1ccccc1)c1ccccc1` (stereo not drawn) the survivor count (dose: 150.0 mg/kg/injection, schedule: Q01DX001 (ip), vehicle: carboxymethylcellulose (CMC)) was 0 of 6 and the survivor count (dose: 300.0 mg/kg/injection, schedule: Q01DX001 (ip), vehicle: carboxymethylcellulose (CMC)) was 0 of 6.

`CCCCCCCCCC[n+]1cccc(C#N)c1` was tested, and the survivor count [3] was 3 of 6, the survivor count [4] was 1 of 6 and the survivor count [5] was 0 of 6.

`CC(O)C[As](=O)(O)c1ccc(Cl)cc1` (stereo not drawn) was tested, and the survivor count (dose: 50.0 mg/kg/injection, schedule: Q04DX003 (ip), vehicle: saline with Tween-80) was 5 of 6, the survivor count (dose: 100.0 mg/kg/injection, schedule: Q04DX003 (ip), vehicle: saline with Tween-80) was 0 of 6 (2×) and the survivor count [10] was 0 of 6. For the same compound, the survivor count [11] was 0 of 6.

With `CN(C)c1ccc(/C=C2\C=Cc3ccccc32)cc1Br` the survivor count [10] was 2 of 6 and the survivor count [11] was 1 of 6.

For `Clc1nc(Cl)c2c(n1)NCCN2`, the survivor count (dose: 200.0 mg/kg/injection, schedule: Q01DX009 (ip), vehicle: Klucel (hydroxypropylcellulose) (HPC)) was 0 of 3.

For `CCCCCCCC(=O)O[C@H]1[C@H]2[C@@H](CC1(C)C)C(=O)[C@]13O[C@H]1C(=O)[C@]1(CO1)[C@]23C`, the survivor count (dose: 40.0 mg/kg/injection, schedule: Q04DX003 (ip), vehicle: saline with Tween-80) was 3 of 6.

In the case of `O=C(COCC(=O)N/N=C/c1ccccc1Cl)N/N=C\c1ccccc1Cl`, the survivor count [7] is reported as 6 of 6.

For `CN(N=O)C(=O)NCCCNC(=O)N(C)N=O`, the T/C (dose: 50.0 mg/kg/injection, schedule: Q01DX Z (ip), vehicle: carboxymethylcellulose (CMC)) was 141 % of control, the T/C (dose: 200.0 mg/kg/injection, schedule: Q01DX Z (ip), vehicle: carboxymethylcellulose (CMC)) was 146 % of control and the T/C (dose: 600.0 mg/kg/injection, schedule: Q01DX001 (ip), vehicle: carboxymethylcellulose (CMC)) was 136 % of control [7 of 10 alive]. For the same compound, the survivor count (dose: 1200.0 mg/kg/injection, schedule: Q01DX001 (ip), vehicle: carboxymethylcellulose (CMC)) was 1 of 10, the T/C (dose: 1200.0 mg/kg/injection, schedule: Q01DX001 (ip), vehicle: saline) was 126 % of control and the survivor count (dose: 2400.0 mg/kg/injection, schedule: Q01DX001 (ip), vehicle: carboxymethylcellulose (CMC)) was 0 of 10. For the same compound, the T/C (dose: 2400.0 mg/kg/injection, schedule: Q01DX001 (ip), vehicle: saline) was 145 % of control [9 of 10 alive].

For `NC(CS)=NCC12CC3CC(CC(C3)C1)C2`, the survivor count (dose: 50.0 mg/kg/injection, schedule: Q04DX003 (ip), vehicle: carboxymethylcellulose (CMC)) was 0 of 6, the survivor count (dose: 100.0 mg/kg/injection, schedule: Q01DX001 (ip), vehicle: Klucel (hydroxypropylcellulose) (HPC)) was 0 of 3 and the survivor count (dose: 100.0 mg/kg/injection, schedule: Q04DX003 (ip), vehicle: carboxymethylcellulose (CMC)) was 0 of 6. For the same compound, the survivor count (dose: 200.0 mg/kg/injection, schedule: Q01DX001 (ip), vehicle: Klucel (hydroxypropylcellulose) (HPC)) was 0 of 3, the survivor count (dose: 200.0 mg/kg/injection, schedule: Q04DX003 (ip), vehicle: carboxymethylcellulose (CMC)) was 0 of 6 and the survivor count [6] was 0 of 3. For the same compound, the survivor count (dose: 400.0 mg/kg/injection, schedule: Q04DX003 (ip), vehicle: carboxymethylcellulose (CMC)) was 0 of 6.

With `O=C(Nc1ccccc1C(F)(F)F)c1cccc(C(=O)Nc2ccccc2C(F)(F)F)c1` the survivor count (dose: 200.0 mg/kg/injection, schedule: Q01DX009 (ip), vehicle: saline with Tween-80) was 6 of 6, the survivor count [10] was 6 of 6 and the survivor count [11] was 6 of 6.

In the case of `O=C(O)c1cccc(F)n1`, the survivor count [11] is reported as 1 of 6.

`CCC1(C)C(=O)N(Br)C(=O)N1Br` (stereo not drawn) was tested, and the survivor count [6] was 3 of 6.

In the case of `NC(Cc1ccccc1)CC1CC1` (stereo not drawn), the survivor count [12] is reported as 3 of 6, the survivor count [13] is reported as 0 of 6 and the survivor count [8] is reported as 0 of 6.

With `CCCCCCCCCCCCOP(=O)(N1CC1(C)C)N1CC1(C)C` (stereo not drawn) the survivor count (dose: 100.0 mg/kg/injection, schedule: Q04DX002 (ip), vehicle: saline) was 3 of 3, the survivor count (dose: 200.0 mg/kg/injection, schedule: Q04DX002 (ip), vehicle: saline) was 1 of 3 and the survivor count (dose: 400.0 mg/kg/injection, schedule: Q04DX002 (ip), vehicle: saline) was 0 of 3.

With `C[N+](C)(C)Cc1ccc2ccccc2c1Br` the survivor count (dose: 100.0 mg/kg/injection, schedule: Q01DX001 (ip), vehicle: saline) was 3 of 6, the survivor count (dose: 200.0 mg/kg/injection, schedule: Q01DX001 (ip), vehicle: saline) was 0 of 6 and the survivor count [1] was 0 of 6.

`C#CCONC(=O)c1ccc(OC)cc1` was tested, and the survivor count (dose: 200.0 mg/kg/injection, schedule: Q01DX009 (ip), vehicle: carboxymethylcellulose (CMC)) was 1 of 6 and the survivor count (dose: 400.0 mg/kg/injection, schedule: Q01DX009 (ip), vehicle: carboxymethylcellulose (CMC)) was 0 of 6.

In the case of `O=C(Nc1ccc(S(=O)(=O)Nc2ccc(N=Nc3ccc(S(=O)(=O)Nc4nccs4)cc3)cc2)cc1)C(N1CC1)(N1CC1)N1CC1`, the survivor count [2] is reported as 1 of 6, the survivor count [3] is reported as 1 of 6 and the survivor count [4] is reported as 0 of 6. For the same compound, the survivor count [5] was 0 of 6.

For `O=S(=O)(F)c1ccccc1S(=O)(=O)Cl`, the survivor count (dose: 200.0 mg/kg/injection, schedule: Q01DX001 (ip), vehicle: carboxymethylcellulose (CMC)) was 1 of 6 and the survivor count (dose: 400.0 mg/kg/injection, schedule: Q01DX001 (ip), vehicle: carboxymethylcellulose (CMC)) was 0 of 6.

With `O=C(O)c1cccc(C(=O)O)[n+]1[O-]` the survivor count [9] was 2 of 3.

With `CC(=O)Nc1ccc(/C=C/c2ccc3ccccc3[n+]2C)cc1` the survivor count (dose: 100.0 mg/kg/injection, schedule: Q01DX009 (ip), vehicle: saline with Tween-80) was 0 of 6, the survivor count [12] was 4 of 6 and the survivor count [13] was 0 of 6. For the same compound, the survivor count [8] was 0 of 6.

For `CCCCNC(=O)CCl`, the survivor count [1] was 0 of 4.

`CN1CC(N(C)C)CCC/C=C\C1=O` (stereo not drawn) was tested, and the survivor count [4] was 1 of 6 and the survivor count [5] was 0 of 6.

With `C=CCc1ccc(OCCOCCN(C)C2CCCCC2)c(OC)c1` the survivor count [13] was 1 of 6 and the survivor count [8] was 0 of 6.

`O=C(c1cccc2ccccc12)N(c1ccccc1)c1ccccc1` was tested, and the survivor count [13] was 6 of 6 and the survivor count [8] was 5 of 6.

`C=C(Br)CNC(=O)CCC` was tested, and the survivor count (dose: 20.0 mg/kg/injection, schedule: Q04DX003 (ip), vehicle: saline) was 2 of 6.

From PubChem BioAssay AID248 (DTP/NCI, 2004)
